Values from PubChem BioAssay AID1259254 (NCATS, 2017)
The deposit covers about 59,000 reagents; shown is an unselected part. About 1,550 of all reagents (2.6%) count as active. 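G2 share is only a proxy for re-replication; each gene was hit by three separate siRNAs, and active genes were retested.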 The numbers tell different reagents against one gene apart. Further read-outs or replicates are left out here. Not given: the amount of reagent.

Test: 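Genome-wide screen for genes that prevent DNA re-replication in cancer cells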 (primary screen)
Cells: human HCT116 colorectal cancer cells
Knock-down reagent: single siRNA against human genes
Timing: 3 days
Read-out: 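Imaged Hoechst DNA stain sorts each cell into a cycle phase by DNA amount; per plate, G2 fraction set to 0% for non-targeting and 100% for GMNN siRNA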
Scale: G2 robust z-score: higher = more G2 cells, more excess DNA replication
Hit rule: 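An siRNA counts as active if its G2 robust z-score lies at least 5 MADs above the screen median; here such calls match roughly 38% of GMNN control or more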

SLC6A7 #1 | G2 robust z-score = 0.151; Call = inactive
SLC6A7 #2 | G2 robust z-score = -0.456; Call = inactive
SLC6A7 #3 | G2 robust z-score = -0.848; Call = inactive
RSPO3 #1 | G2 robust z-score = 1.46; Call = inactive
RSPO3 #2 | G2 robust z-score = 0.59; Call = inactive
RSPO3 #3 | G2 robust z-score = -0.114; Call = inactive
METTL6 #1 | G2 robust z-score = -0.216; Call = inactive
METTL6 #2 | G2 robust z-score = 4.73; Call = inactive
METTL6 #3 | G2 robust z-score = -0.226; Call = inactive
VPS72 #1 | G2 robust z-score = -0.798; Call = inactive
VPS72 #2 | G2 robust z-score = 0.134; Call = inactive
VPS72 #3 | G2 robust z-score = 0.243; Call = inactive
SMARCA4 #1 | G2 robust z-score = 3.71; Call = inactive
SMARCA4 #2 | G2 robust z-score = -0.612; Call = inactive
SMARCA4 #3 | G2 robust z-score = 0.516; Call = inactive
SNPH #1 | G2 robust z-score = -0.496; Call = inactive
SNPH #2 | G2 robust z-score = -0.234; Call = inactive
SNPH #3 | G2 robust z-score = 1.12; Call = inactive

2 entries already listed, sorted by “G2 robust z-score”, high to low.
SMARCA4 #1 | G2 robust z-score = 3.71; Call = inactive
SMARCA4 #2 | G2 robust z-score = -0.612; Call = inactive
